Our source for the binding values is article PMC8034388.

Sequences of proteins named here, by UniProt entry; tags and fusion partners are left off.
UniProt Q15365: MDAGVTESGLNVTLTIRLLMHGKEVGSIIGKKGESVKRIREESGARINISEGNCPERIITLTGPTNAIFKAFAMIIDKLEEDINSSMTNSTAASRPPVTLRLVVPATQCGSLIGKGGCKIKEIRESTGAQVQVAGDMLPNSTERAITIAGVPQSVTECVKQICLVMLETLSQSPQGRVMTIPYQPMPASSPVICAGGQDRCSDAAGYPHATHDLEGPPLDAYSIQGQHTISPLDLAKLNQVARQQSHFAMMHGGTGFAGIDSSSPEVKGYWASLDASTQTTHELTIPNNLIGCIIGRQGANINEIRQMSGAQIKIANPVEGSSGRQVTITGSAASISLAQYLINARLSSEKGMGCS
UniProt O00327: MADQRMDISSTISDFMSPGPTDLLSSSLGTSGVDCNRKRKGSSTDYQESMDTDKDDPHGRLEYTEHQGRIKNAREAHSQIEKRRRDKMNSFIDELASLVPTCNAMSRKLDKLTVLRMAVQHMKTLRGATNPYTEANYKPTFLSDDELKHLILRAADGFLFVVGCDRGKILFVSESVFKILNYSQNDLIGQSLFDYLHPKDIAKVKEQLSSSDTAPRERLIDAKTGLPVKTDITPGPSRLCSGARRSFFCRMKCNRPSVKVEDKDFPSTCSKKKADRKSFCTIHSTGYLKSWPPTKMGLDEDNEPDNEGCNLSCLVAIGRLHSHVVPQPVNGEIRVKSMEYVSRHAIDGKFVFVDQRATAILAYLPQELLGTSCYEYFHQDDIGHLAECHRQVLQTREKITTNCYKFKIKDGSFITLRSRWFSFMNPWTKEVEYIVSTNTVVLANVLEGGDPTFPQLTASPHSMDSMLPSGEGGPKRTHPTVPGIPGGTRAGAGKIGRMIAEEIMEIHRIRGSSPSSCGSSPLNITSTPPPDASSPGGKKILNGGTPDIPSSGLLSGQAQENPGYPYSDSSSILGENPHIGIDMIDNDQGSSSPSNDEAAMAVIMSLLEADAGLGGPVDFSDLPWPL

Read-outs that look alike come from different tables or passages of the source. Results are given in words; binding and its absence hold for the method and conditions named. Binding seen in cells or lysates may run through a third protein. Some results given as binding are weak or reduced against the parent protein; the word gives no strength. For some of these results: Where a sequence is shown, tags or fusion partners need not be part of it.

Experiment [1] deals with PCBP1 with HA-tag (UniProt Q15365). In words: co-IP; HEK293T lysates 24 h after transfection; lysis buffer 50 mM Tris-HCl pH 7.5, 150 mM NaCl, 1% NP-40; precipitated with HA or FLAG-agarose beads, washed three times, blotted with anti-Flag and anti-HA.
For experiment [2] the target is unchanged. The description is as above. The source holds these as a separate data set.
Experiment [3] deals with poly(C)-binding protein 1 (PCBP1) fused to a luciferase fragment (UniProt Q15365). Nature of the experiment: split reporter; luciferase complementation: N-terminal and C-terminal luciferase fragments fused to the two proteins, co-expressed in HEK293T cells, read 24 h after transfection with the Dual-Luciferase Reporter Assay System; CLOCK with CRY1 also tested with co-expressed BMAL1 or PCBP1 and in siBMAL1, siCRY1 or siPCBP1 cells.

“BMAL1 with FLAG-tag (from UniProt O00327 1-626)”: the binding entry in the experiment with PCBP1 with HA-tag [1] is on record as “binds weakly”.

B1: CRY2 with FLAG-tag (protein, UniProt Q49AN0 1-593)
chain: MAATVATAAAVAPAPAPGTDSASSVHWFRKGLRLHDNPALLAAVRGARCVRCVYILDPWFAASSSVGINRWRFLLQSLEDLDTSLRKLNSRLFVVRGQPADVFPRLFKEWGVTRLTFEYDSEPFGKERDAAIMKMAKEAGVEVVTENSHTLYDLDRIIELNGQKPPLTYKRFQAIISRMELPKKPVGLVTSQQMESCRAEIQENHDETYGVPSLEELGFPTEGLGPAVWQGGETEALARLDKHLERKAWVANYERPRMNANSLLASPTGLSPYLRFGCLSCRLFYYRLWDLYKKVKRNSTPPLSLFGQLLWREFFYTAATNNPRFDRMEGNPICIQIPWDRNPEALAKWAEGKTGFPWIDAIMTQLRQEGWIHHLARHAVACFLTRGDLWVSWESGVRVFDELLLDADFSVNAGSWMWLSCSAFFQQFFHCYCPVGFGRRTDPSGDYIRRYLPKLKAFPSRYIYEPWNAPESIQKAAKCIIGVDYPRPIVNHAETSRLNIERMKQIYQQLSRYRGLCLLASVPSCVEDLSHPVAEPSSSQAGSMSSAGPRPLPSGPASPKRKLEAAEEPPGEELSKRARVAELPTPELPSKDA
Consider B1, for which the binding entry with PCBP1 with HA-tag [2] is “binds”.

B2: Cryptochrome 1 (CRY1) fused to a luciferase fragment (protein, UniProt Q16526 1-586)
chain: MGVNAVHWFRKGLRLHDNPALKECIQGADTIRCVYILDPWFAGSSNVGINRWRFLLQCLEDLDANLRKLNSRLFVIRGQPADVFPRLFKEWNITKLSIEYDSEPFGKERDAAIKKLATEAGVEVIVRISHTLYDLDKIIELNGGQPPLTYKRFQTLISKMEPLEIPVETITSEVIEKCTTPLSDDHDEKYGVPSLEELGFDTDGLSSAVWPGGETEALTRLERHLERKAWVANFERPRMNANSLLASPTGLSPYLRFGCLSCRLFYFKLTDLYKKVKKNSSPPLSLYGQLLWREFFYTAATNNPRFDKMEGNPICVQIPWDKNPEALAKWAEGRTGFPWIDAIMTQLRQEGWIHHLARHAVACFLTRGDLWISWEEGMKVFEELLLDADWSINAGSWMWLSCSSFFQQFFHCYCPVGFGRRTDPNGDYIRRYLPVLRGFPAKYIYDPWNAPEGIQKVAKCLIGVNYPKPMVNHAEASRLNIERMKQIYQQLSRYRGLGLLASVPSNPNGNGGFMGYSAENIPGCSSSGSCSQGSGILHYAHGDSQQTHLLKQGRSSMGTGLSGGKRPSQEEDTQSIGPKVQRQSTN
Take B2: the binding result in experiment [3] is “binds”.

B3: CRY1 with FLAG-tag (protein, UniProt Q16526 1-586)
chain: MGVNAVHWFRKGLRLHDNPALKECIQGADTIRCVYILDPWFAGSSNVGINRWRFLLQCLEDLDANLRKLNSRLFVIRGQPADVFPRLFKEWNITKLSIEYDSEPFGKERDAAIKKLATEAGVEVIVRISHTLYDLDKIIELNGGQPPLTYKRFQTLISKMEPLEIPVETITSEVIEKCTTPLSDDHDEKYGVPSLEELGFDTDGLSSAVWPGGETEALTRLERHLERKAWVANFERPRMNANSLLASPTGLSPYLRFGCLSCRLFYFKLTDLYKKVKKNSSPPLSLYGQLLWREFFYTAATNNPRFDKMEGNPICVQIPWDKNPEALAKWAEGRTGFPWIDAIMTQLRQEGWIHHLARHAVACFLTRGDLWISWEEGMKVFEELLLDADWSINAGSWMWLSCSSFFQQFFHCYCPVGFGRRTDPNGDYIRRYLPVLRGFPAKYIYDPWNAPEGIQKVAKCLIGVNYPKPMVNHAEASRLNIERMKQIYQQLSRYRGLGLLASVPSNPNGNGGFMGYSAENIPGCSSSGSCSQGSGILHYAHGDSQQTHLLKQGRSSMGTGLSGGKRPSQEEDTQSIGPKVQRQSTN
Take B3: in the experiment with PCBP1 with HA-tag [2], the binding result is listed as “binds”.
